## Primary screen of a compound library

The chains behind the UniProt entries cited, without tags or fusion partners.
UniProt E9BF75, entry or part of it: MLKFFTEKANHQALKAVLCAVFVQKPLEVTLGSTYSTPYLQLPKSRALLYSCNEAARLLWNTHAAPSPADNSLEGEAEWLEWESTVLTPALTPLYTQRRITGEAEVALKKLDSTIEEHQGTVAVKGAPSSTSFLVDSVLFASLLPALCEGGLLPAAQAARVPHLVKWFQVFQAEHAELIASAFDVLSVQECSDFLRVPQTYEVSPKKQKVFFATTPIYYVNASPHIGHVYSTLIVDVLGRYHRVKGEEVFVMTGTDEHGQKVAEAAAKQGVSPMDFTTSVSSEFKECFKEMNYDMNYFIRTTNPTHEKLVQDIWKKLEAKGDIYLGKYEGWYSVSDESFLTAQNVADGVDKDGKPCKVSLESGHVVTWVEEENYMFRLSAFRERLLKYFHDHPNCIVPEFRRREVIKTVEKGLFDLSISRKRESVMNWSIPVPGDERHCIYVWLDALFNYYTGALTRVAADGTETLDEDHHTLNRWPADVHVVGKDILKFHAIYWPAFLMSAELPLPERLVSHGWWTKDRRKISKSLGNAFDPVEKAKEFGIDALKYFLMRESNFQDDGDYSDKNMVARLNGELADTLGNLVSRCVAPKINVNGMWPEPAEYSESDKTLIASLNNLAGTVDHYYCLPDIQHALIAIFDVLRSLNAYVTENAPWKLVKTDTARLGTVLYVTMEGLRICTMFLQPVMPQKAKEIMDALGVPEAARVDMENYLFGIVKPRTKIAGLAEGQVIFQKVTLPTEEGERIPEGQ

Results are percentages, as filed.
The record does not define 0% and 100%; most values in the screen are far below 50% and negative numbers occur (in some assays of this library far below -100).
Compounds were drawn at random from those tested, without regard to their results.
A dash means the value is not listed here; it may have been measured.

Mtb heat-shock: 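Assay on Mycobacterium tuberculosis, filed only as a heat shock assay from Cornell; the read-out is not stated. The concentration is filed as 10 mM, unlikely as a test dose, so the dose is not known. Direction is inferred from retests: higher values go with stronger inhibition. About 69,000 compounds were tested under these conditions; 1.4% (about 930) showed 50% or more at least once.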
LdMetRS: 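Methionyl-tRNA synthetase (putative), Leishmania donovani (UniProt E9BF75). Primary screen of methionyl-tRNA synthetase; the read-out is not stated. The test concentration is not given. The values are filed as inhibition. About 68,000 compounds were tested under these conditions; 0.035% (about 24) showed 50% or more at least once.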
Mtb growth Cornell: 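Whole-cell assay for inhibitors of Mycobacterium tuberculosis growth, labelled Cornell in the record; the read-out is not stated. The concentration is filed as 10 mM, unlikely as a test dose, so the dose is not known. Higher means stronger inhibition (inferred from two other growth screens of the library). Size under these conditions: about 53,000 compounds, about 900 of them at 50% or above in at least one test.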

{"compound": "CC(C)C[C@H]1CN(c2nc3c(cc2C(N)=O)CCC3)CC[C@@]1(C)O", "Mtb heat-shock": 16.71, "LdMetRS": 16.84, "Mtb growth Cornell": 31.06}
{"compound": "COc1ccc(-c2noc(C(N)CCSC)n2)cc1OC", "stereo": "stereo unspecified", "Mtb heat-shock": 13.2, "LdMetRS": -0.5376, "Mtb growth Cornell": 9.443}
{"compound": "COc1cc(NCc2ncc[nH]2)ccc1Br", "Mtb heat-shock": 5.208, "LdMetRS": 1.045, "Mtb growth Cornell": -5.052}
{"compound": "CCn1cc(CN2CCN(CC(O)c3ccc(C)cc3C)CC2)cn1", "stereo": "stereo unspecified", "Mtb heat-shock": -7.834, "LdMetRS": 20, "Mtb growth Cornell": -31}
{"compound": "[H][C@@]12CN(Cc3cccnc3)CCO[C@]1([H])CN(C(=O)c1ncccn1)C2", "Mtb heat-shock": 1.592, "Mtb growth Cornell": 19.95}
{"compound": "O=C(c1cnccn1)N1CCCC2(CCN(c3ccccn3)C2)C1", "stereo": "stereo unspecified", "LdMetRS": 9.375}
{"compound": "N#Cc1cnn(-c2ccc(C(=O)N(C3CCCCC3)C3CC3)cc2)c1N", "Mtb heat-shock": -5.932, "LdMetRS": 18.03}
{"compound": "c1ccc(CN2CCOC3(COCCN(c4ncccn4)C3)C2)nc1", "stereo": "stereo unspecified", "LdMetRS": 5.226}
{"compound": "CC(Cn1cccn1)NC(=O)N1CCN(Cc2ccncc2)CC1", "stereo": "stereo unspecified", "Mtb heat-shock": -14.79, "LdMetRS": 13.8}
{"compound": "CN(C)C(=O)COC1COC2(CCN(c3ncccn3)CC2)C1", "stereo": "stereo unspecified", "Mtb heat-shock": 11.18, "LdMetRS": 13.65, "Mtb growth Cornell": 22.49}
{"compound": "CN(C)CCN1CCOCC2(C1)CN(Cc1ccco1)CCO2", "stereo": "stereo unspecified", "LdMetRS": 13.74}
{"compound": "CC(C)c1cc(NC(=O)c2ccc(NC3CC3)nc2)[nH]n1", "Mtb heat-shock": 1.878, "LdMetRS": 14.17, "Mtb growth Cornell": -6.556}
{"compound": "CCc1ocnc1C(=O)N1CCC2(CC1)OCC(C)O2", "stereo": "stereo unspecified", "Mtb heat-shock": -4.978, "LdMetRS": 11.96, "Mtb growth Cornell": 14.54}
{"compound": "Cc1cccc(OCC(O)CN2CCC(c3ccn[nH]3)CC2)c1", "stereo": "stereo unspecified", "Mtb heat-shock": -11.37, "LdMetRS": 23.94}
{"compound": "CN1CCC(c2n[nH]c(=O)n2-c2cccc(Cl)c2)CC1", "Mtb heat-shock": -182.9, "LdMetRS": -0.3021}
{"compound": "CCc1cc(N2CCCC(CC)(C(=O)O)C2)nc(N2CCOCC2)n1", "stereo": "stereo unspecified", "Mtb heat-shock": -19.24, "LdMetRS": 1.681, "Mtb growth Cornell": -30.59}
{"compound": "COc1cc(Br)c(S(=O)(=O)NC(=O)C(C)OC)cc1OC", "stereo": "stereo unspecified", "Mtb heat-shock": 6.33, "LdMetRS": 14.89, "Mtb growth Cornell": -4.649}
{"compound": "O=C(O)C(F)(F)F.O=C(O)C(F)(F)F.[H][C@@]12COC[C@]1([H])[C@H](OCc1ccccn1)CN2Cc1ccc(C)o1", "Mtb heat-shock": 4.099, "Mtb growth Cornell": 7.496}
{"compound": "CC(C)(C)c1ncc2c(n1)CN(C(=O)C(C)(C)n1cccc1)C2", "Mtb heat-shock": 15.45, "LdMetRS": 5.842, "Mtb growth Cornell": -4.33}
{"compound": "COC(=O)CNc1ccc(-c2nc(Cc3ccc(OC)cc3)no2)cn1", "Mtb heat-shock": -1.692, "LdMetRS": 13.54, "Mtb growth Cornell": -50.06}
{"compound": "O=C(NC1CCCCC1)c1c(F)cccc1F", "Mtb heat-shock": 11.52, "LdMetRS": 8.635}
{"compound": "Cc1cccc(N2CCC(N3CCC4(CCCNC4=O)C3)CC2)c1C", "stereo": "stereo unspecified", "Mtb heat-shock": -8.42, "LdMetRS": 3.008}
{"compound": "[H][C@]12CC[C@]([H])(CN(C(=O)Cc3ccccn3)C1)N(Cc1ccccc1)C2=O", "Mtb heat-shock": -16.7}

Some entries from above, unchanged:

| Compound | Mtb heat-shock | LdMetRS | Mtb growth Cornell |
|---|---|---|---|
| `CN1CCC(c2n[nH]c(=O)n2-c2cccc(Cl)c2)CC1` | -182.9% | -0.3021% | - |
| `COc1ccc(-c2noc(C(N)CCSC)n2)cc1OC` (stereo unspecified) | 13.2% | -0.5376% | 9.443% |

Data taken from ChEMBL document CHEMBL3988442, “University of Dundee, Small-Polar-MMV Screening Library” (2021).